According to publication doi:10.1101/2025.08.19.671117:
These are yes or no findings as the source states them, for the method shown. In cells and extracts the contact can be indirect. Some results given as binding are weak or reduced against the parent protein; the word gives no strength.

Chains of the proteins cited; added tags and fusions are not shown. Residues count along the entry.
UniProt P25705, residues 44-553: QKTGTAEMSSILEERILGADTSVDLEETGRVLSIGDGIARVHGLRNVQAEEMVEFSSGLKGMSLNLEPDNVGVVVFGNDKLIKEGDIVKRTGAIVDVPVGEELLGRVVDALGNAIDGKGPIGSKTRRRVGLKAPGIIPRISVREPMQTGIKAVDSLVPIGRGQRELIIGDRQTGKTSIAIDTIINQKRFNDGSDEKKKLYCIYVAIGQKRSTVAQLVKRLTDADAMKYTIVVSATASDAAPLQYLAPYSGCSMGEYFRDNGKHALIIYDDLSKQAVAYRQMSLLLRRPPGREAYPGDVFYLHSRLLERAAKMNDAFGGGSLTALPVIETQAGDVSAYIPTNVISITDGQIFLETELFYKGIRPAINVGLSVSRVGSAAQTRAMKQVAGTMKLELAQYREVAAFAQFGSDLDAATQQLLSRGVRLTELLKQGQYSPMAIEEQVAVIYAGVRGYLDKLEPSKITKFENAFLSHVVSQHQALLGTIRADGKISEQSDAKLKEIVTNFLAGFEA
UniProt Q5VYX0, residues 18-342: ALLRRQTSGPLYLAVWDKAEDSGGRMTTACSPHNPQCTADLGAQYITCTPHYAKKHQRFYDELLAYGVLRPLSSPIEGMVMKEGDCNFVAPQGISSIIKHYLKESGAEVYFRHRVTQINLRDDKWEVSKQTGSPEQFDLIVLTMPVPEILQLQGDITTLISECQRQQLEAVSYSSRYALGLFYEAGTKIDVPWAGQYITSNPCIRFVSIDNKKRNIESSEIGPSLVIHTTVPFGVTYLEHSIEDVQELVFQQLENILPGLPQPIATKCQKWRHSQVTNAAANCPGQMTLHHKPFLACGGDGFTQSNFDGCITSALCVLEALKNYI

What was measured:
Test in all cases: proximity ligation
[1] = target: ATP synthase alpha subunit (ATP5α) (human (endogenous in HeLa)) (UniProt P25705)
[2] = target: ATP synthase beta subunit (ATP5β) (human (endogenous in HeLa)) (UniProt P06576)
[3] = target: T1, OSCP, a component of the peripheral stator of the ATP synthase (human (endogenous in HeLa)) (UniProt P48047)
T1 sequence: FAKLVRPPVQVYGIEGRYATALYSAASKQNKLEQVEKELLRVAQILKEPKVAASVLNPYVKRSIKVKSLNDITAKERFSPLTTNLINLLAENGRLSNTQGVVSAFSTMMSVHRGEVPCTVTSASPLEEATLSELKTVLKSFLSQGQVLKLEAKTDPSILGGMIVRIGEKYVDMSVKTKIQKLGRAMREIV

Renalase (human RNLS-1) (from UniProt Q5VYX0 18-342)
binding [1]: binds | binding [2]: binds | binding [3]: no binding
